{"source": "patent US12343397B2", "about": "“Drug-resistant immune cells and methods of use thereof” (Regents of the University of Minnesota, priority 2018, dated 2025)", "type_in_all_cases": "cell-based, human", "key": {"[1]": {"tested_on": "CD4+ effector T cells (Teffs)", "experiment": "Relative survival of base edited effector T cells ± dexamethasone", "conditions": "Teffs receiving two rounds of stimulation"}, "Tregs [2]": {"tested_on": "Tregs", "experiment": "In vitro suppressive function of Tregs grown ± Dex", "conditions": "Tregs grown ±30 μg/ml Dex in re-expansion culture"}, "Tregs [3]": {"tested_on": "Tregs", "experiment": "Dexamethasone effects on Treg survival and purity in re-expansion culture (flow cytometry, viability dye, counting beads)", "conditions": "for Treg numbers / survival in culture: Dex 10, 30, 100 μg/ml, 2-3 days"}}, "note": "For at least one compound, name, drawing or mass did not settle the structure."}
{"molecule": "C[C@@H]1C[C@H]2[C@@H]3CCC4=CC(=O)C=C[C@]4(C)[C@@]3(F)[C@@H](O)C[C@]2(C)[C@@]1(O)C(=O)CO", "note": "[Dexamethasone]", "values": [{"measurement": "sensitivity of Teffs", "setting": "[1]", "value": "very sensitive"}, {"measurement": "suppressive function of Tregs", "setting": "Tregs [2]", "value": "increased suppressive function"}, {"measurement": "Treg numbers / survival in culture", "setting": "Tregs [3]", "value": "greatly diminished"}, {"measurement": "Treg numbers / survival in culture", "setting": "Tregs [3]; listed as Dex", "value": "decreased Treg numbers in the cultures in a dose-dependent manner"}, {"measurement": "purity of Treg cultures (CD4+CD127−Foxp3+)", "setting": "Tregs [3]; Dex treatment", "value": "did not significantly impact the purity of Treg cultures"}]}
